Measurements: PubChem BioAssay AID2551 (National Center for Advancing Translational Sciences (NCATS), 2010)
Hit rate of the full screen: of about 310,000 compounds, about 17,000 (5.5%) were called active. The shares of active, inactive and inconclusive entries below differ from those in the screen. Calls follow the shape of the dose curve; as a rule, active = well fitted inhibition curve with a large enough effect; inconclusive = small, poorly fitted or top-dose-only effect, or effect the other way; inactive = no such curve, though single readings can be large or run the other way. A potency beside an inconclusive call is a rough fit, not a confirmed value. More than one record can exist for a structure, and the calls need not agree.

Sequences of proteins named here, by UniProt entry; tags and fusion partners are left off. A change or cut given only in a name is not applied to a line headed by its entry.
UniProt P51450: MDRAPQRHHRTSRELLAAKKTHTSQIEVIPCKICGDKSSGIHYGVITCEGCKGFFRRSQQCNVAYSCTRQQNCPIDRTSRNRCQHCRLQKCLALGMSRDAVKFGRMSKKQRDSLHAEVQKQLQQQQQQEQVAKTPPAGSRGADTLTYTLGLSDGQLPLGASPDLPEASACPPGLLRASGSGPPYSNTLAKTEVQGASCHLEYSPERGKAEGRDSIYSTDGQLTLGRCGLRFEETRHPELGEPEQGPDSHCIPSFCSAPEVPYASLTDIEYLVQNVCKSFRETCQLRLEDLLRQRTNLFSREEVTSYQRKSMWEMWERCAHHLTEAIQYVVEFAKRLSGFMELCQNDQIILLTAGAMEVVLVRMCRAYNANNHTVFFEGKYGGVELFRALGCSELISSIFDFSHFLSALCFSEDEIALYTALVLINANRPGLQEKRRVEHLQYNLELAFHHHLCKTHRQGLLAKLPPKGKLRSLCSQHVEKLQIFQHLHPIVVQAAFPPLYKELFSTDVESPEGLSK

What follows are molecules tested against Nuclear receptor ROR-gamma (Mus musculus) (UniProt P51450) (assay: qHTS for inhibitors of ROR gamma transcriptional activity). Details: Drosophila S2 Gal4-RORgamma UAS-luciferase reporter, 20 h; activity change, negative = inhibition: at 53.6 µM (top of the series).
Method in brief: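 Drosophila S2 cells stably expressing Gal4-DBD/mouse RORγ fusion under metallothionein promoter plus UAS-luciferase; compound 1 h, then 700 uM CuSO4 induction for 20 h at ambient temperature; inhibition read as reduced luminescence.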
% is scaled to controls: 0 for no effect and ±100 for the full control effect; potency is read from the fitted curve at half-maximal effect.
Also: nearly all actives have a fitted effect of over 60% in size.

| SMILES | Potency | activity change, negative = inhibition |
| --- | --- | --- |
| O=c1c2cn[nH]c2nc(SCc2ccc3c(c2)OCCO3)n1-c1ccccc1 | inconclusive: 35.5 µM [inhibitor, single point] |  |
| CN(Cc1cccc(F)c1)C(=O)c1ccccc1Sc1ccccc1C#N | inconclusive: 14.1 µM [activator, single point] |  |
| CCOc1ccc(N=C(/C(C(=O)C(=O)N2CCOCC2)=C(/O)c2ccccc2)c2ccccc2)cc1 | inconclusive: 35.5 µM [inhibitor, single point] |  |
| COc1ccc(/C=C/c2nc3ccccc3n2C)cc1 | active: 2 µM |  |
| Cc1ccc(OCc2nnc(SCC(=O)Nc3nccs3)n2-c2ccccc2)cc1C |  | inactive: -3.97% |
| O=c1c2ccccc2nc(-c2ccccc2)n1CCN1CCOCC1 |  | inactive: 6.71% |
| O=C(c1ccccc1Cl)N(Cc1ccc(Br)cc1)N1C(=O)CCC1=O |  | inactive: 3.58% |
| COc1ccc(NC(C)=O)cc1NC(C)C(=O)Nc1ccc(F)c(F)c1F (stereo not drawn) |  | inactive: 14.9% |
| COC(=O)c1ccc(NCCc2csc(-c3ccc(C)cc3)n2)c([N+](=O)[O-])c1 | inconclusive: 0.0891 µM [inhibitor, full curve, poor fit] |  |
| Cc1c(NC(=O)/C(C#N)=C/c2ccc(-c3ccc(Cl)cc3)o2)c(=O)n(-c2ccccc2)n1C | inconclusive: 35.5 µM [inhibitor, single point] |  |
| O=C(O)CCCC/C=C\C[C@@H](O)/C=C/C=C/C=C\[C@@H](O)CCCC(=O)O |  | inactive: 17.1% |
| S=C(NCc1ccccn1)Nc1ccc(Cl)cc1Cl | active: 8.91 µM |  |
| CCCCCCN1C=CC=C/C1=C\C=C(C#N)C#N |  | inactive: 6.83% |
| COc1ccc(N2CCN(c3ccc(Cl)nn3)CC2)cc1 | inconclusive: 35.5 µM [activator, single point] |  |
| CCOC(=O)N1CCN(C(=O)c2ccccc2NC(=O)COc2ccccc2C)CC1 | inconclusive: 17.8 µM [activator, single point] |  |
| O=C(Cn1cccc1)Nc1ccc(OC(F)(F)F)cc1 | inconclusive: 31.6 µM [activator, single point] |  |
| CCN(CC(=O)NC(C)C)Cc1nc2c(Br)cc(Br)cc2c(=O)[nH]1 | active: 2.24 µM |  |
| Cc1nc2sccn2c1-c1nc(-c2cc3ccccc3o2)cs1 | inconclusive: 22.4 µM [inhibitor, single point] |  |
| Fc1ccccc1C(c1nnnn1C1CCCC1)N1CCN(Cc2ccccc2)CC1 (stereo not drawn) |  | inactive: -7.3% |
| O=C(Cc1ccc(Cl)cc1)Nc1ccc(N2CCN(C(=O)c3ccco3)CC2)c(Cl)c1 | inconclusive: 1.58 µM [activator, full curve, poor fit] |  |
| CSCc1cc(N2CCCC2)nc(-c2ccccc2)n1 | inconclusive: 10 µM [inhibitor, partial curve] |  |
| COc1cccc(OCC(=O)NNC(=S)Nc2ccc(Cl)cc2Cl)c1 | active: 15.8 µM |  |
| COc1ccc2[nH]cc(CCNc3ncncc3-c3c(C)noc3C)c2c1 |  | inactive: 40.5% |
| CC1CN(C(=O)CSc2nnc(-c3ccc(Cl)cc3)n2C)CC(C)O1 (stereo not drawn) | inconclusive: 0.562 µM [inhibitor, single point] |  |
| C=CCc1ccccc1OCCOc1ccc([N+](=O)[O-])cc1/C=N/NC(N)=O | inconclusive: 35.5 µM [inhibitor, single point] |  |

3 of the compounds above, with each value named:
CCOc1ccc(N=C(/C(C(=O)C(=O)N2CCOCC2)=C(/O)c2ccccc2)c2ccccc2)cc1
  Potency: inconclusive: 35.5 µM [inhibitor, single point]
O=c1c2ccccc2nc(-c2ccccc2)n1CCN1CCOCC1
  activity change, negative = inhibition: inactive: 6.71%
Cc1nc2sccn2c1-c1nc(-c2cc3ccccc3o2)cs1
  Potency: inconclusive: 22.4 µM [inhibitor, single point]

Additional results

| SMILES | Potency | activity change, negative = inhibition |
| --- | --- | --- |
| Oc1ccc(-c2csc(-c3cccnc3)n2)c(O)c1 | inconclusive: 6.31 µM [activator, single point] |  |
| Cn1c(N)c(C(=O)COC(=O)c2cc(C3CC3)nc3ccccc23)c(=O)n(C)c1=O | inconclusive: 12.6 µM [activator, single point] |  |
| CNC(=O)COc1coc(CN2CCN(c3ccccc3OC)CC2)cc1=O | inconclusive: 31.6 µM [activator, single point] |  |
| Cc1cc(C(=O)NC2CCCN(Cc3ccccc3F)C2)no1 (stereo not drawn) |  | inactive: -4.79% |
| Fc1ccc(Nc2ncncc2-c2ccccc2C(F)(F)F)cc1 | inconclusive: 14.1 µM [inhibitor, single point] |  |
| CC(C)N(C(=O)CSc1nc2ccccc2n1Cc1ccccc1)C(C)C | inconclusive: 35.5 µM [inhibitor, partial curve] |  |
| Cc1cccc(-n2nnnc2SCn2nnc3ccccc3c2=O)c1 | inconclusive: 2.24 µM [activator, partial curve] |  |
| COc1cc(NC(=O)Nc2cccc(Cl)c2)c(C(=O)O)cc1OC | inconclusive: 35.5 µM [activator, single point] |  |
| c1ccc(C[n+]2cccc3c4ccccc4ccc32)cc1 | inconclusive: 14.1 µM [activator, single point] |  |
| CC(C)(CNC(=S)NCCc1ccccc1)CNC(=S)NCCc1ccccc1 | inconclusive: 14.1 µM [inhibitor, single point] |  |
| CNCCCC12CCC(c3ccccc31)c1ccccc12 | active: 10 µM |  |
| COc1c(O)cc2oc(-c3ccc(O)cc3)cc(=O)c2c1O | inconclusive: 35.5 µM [inhibitor, single point] |  |
| COc1ccccc1C(=O)NCCOc1ccc(C)c(C)c1 | inconclusive: 35.5 µM [activator, single point] |  |
| CC(=O)c1cccc(NC(=S)NC(=O)c2ccccc2Br)c1 | active: 11.2 µM |  |
| COc1ccc(CCNC(=S)N2CCN(S(=O)(=O)c3ccccc3F)CC2)cc1 | inconclusive: 17.8 µM [activator, partial curve] |  |
| O=C1C(Cl)=C(N2CCCCC2)C(=O)N1Cc1ccccc1 | inconclusive: 15.8 µM [activator, single point] |  |
| COc1ccc(C(C)(C)C)cc1NC(=O)c1ccc2ncsc2c1 | inconclusive: 10 µM [activator, partial curve] |  |
| CN(C(=O)C1CCCN(c2ncnc3c2nc2n3CCCCC2)C1)c1cccc(Cl)c1 (stereo not drawn) |  | inactive: 39.9% |
| Cc1ccc(NC(=O)N2N=C(c3ccc(F)cc3)CC2c2ccc(F)cc2)cc1 (stereo not drawn) | inconclusive: 0.708 µM [activator, single point] |  |
| COc1cc(-c2nc(C(=O)NCC3CCCO3)cc3c2[nH]c2ccccc23)cc(OC)c1OC (stereo not drawn) | inconclusive: 11.2 µM [activator, partial curve, poor fit] |  |
| NC(=O)Cn1nnc(-c2ccc(NC(=O)c3ccc(F)cc3)cc2)n1 | inconclusive: 2.82 µM [activator, full curve, poor fit] |  |
| Cc1ccc(C(=O)/C=C/c2ccc3c(c2)OCCO3)c(O)c1 |  | inactive: -31.9% |
| COc1ccc(C(=O)NC(=S)NNC(=O)CCc2ccccc2)cc1 | active: 4.47 µM |  |
| COc1cccc(C(=O)NC(C)c2ccc(Br)cc2)c1 (stereo not drawn) |  | inactive: 14.3% |
| O=C(Nc1cccc(C(F)(F)F)c1)n1cc(-c2ccccn2)c(N2CCOCC2)n1 | inconclusive: 2.82 µM [inhibitor, single point] |  |

| SMILES | Potency | activity change, negative = inhibition |
| --- | --- | --- |
| O=c1[nH]c(/C(=N\O)c2ccccc2)no1 | inconclusive: 3.98 µM [inhibitor, single point] |  |
| O=[N+]([O-])c1c(-c2cn[nH]c2)n[nH]c1-c1cn[nH]c1 |  | inactive: -2.04% |
| O=C(CCCc1nc2ccccc2s1)NCc1ccc(F)cc1 | inconclusive: 31.6 µM [activator, single point] |  |
| COc1ccc(NCc2nc3ccccc3n2C)cc1 | inconclusive: 35.5 µM [inhibitor, single point] |  |
| Cn1c(=O)oc2cc(S(=O)(=O)N3CCC(C(=O)N4CC=C(c5ccccc5)CC4)CC3)ccc21 |  | inactive: -26.5% |
| C=CCN(CC=C)Cc1c(C)[nH]c2c(C)c(C)ccc2c1=O | inconclusive: 35.5 µM [inhibitor, single point] |  |
| C=CCn1c(O)c(N=NC(=S)Nc2cccc(C)c2)c2ccccc21 | active: 0.251 µM |  |
| Cc1ncoc1C(=O)N1CCCC(C(=O)c2ccc(-c3ccccc3)cc2)C1 (stereo not drawn) | inconclusive: 7.08 µM [activator, partial curve] |  |
| CCNC(=O)C(=O)N/N=C/c1cc([N+](=O)[O-])ccc1O | active: 11.2 µM |  |
| Cc1ccccc1Cn1nc(C)c(NC(=O)c2noc3c2CC(C(C)(C)C)CC3)c1C (stereo not drawn) | inconclusive: 17.8 µM [activator, single point] |  |
| CCOc1ccc(-c2csc(NNC3=NCCCCC3)n2)cc1 | inconclusive: 11.2 µM [inhibitor, single point] |  |
| Cc1nc(C(=O)NNC(=O)c2ccccc2)c(C(F)(F)F)o1 | active: 11.2 µM |  |
| N/C(=N\OC(=O)c1cccc(Cl)c1)c1ccncc1 |  | inactive: -2.35% |
| Cc1cc(C)cc(N=c2c([N+](=O)[O-])nn(-c3ccc4c(c3)OCCO4)n2O)c1 | inconclusive: 22.4 µM [activator, single point] |  |
| CSc1ccc(C(=O)C2CCCN(C(=O)c3ccc(C)nc3)C2)cc1 (stereo not drawn) | inconclusive: 35.5 µM [activator, single point] |  |
| Cc1ccc2c(CC(=O)NC3CCCc4ccccc43)coc2c1 (stereo not drawn) | inconclusive: 11.2 µM [activator, partial curve] |  |
| CCn1c(-c2cc(Cl)ccc2OC)n[nH]c1=S | active: 6.31 µM |  |
| CCCCC1(C)NC(=O)N(CC(=O)Nc2ccc(S(=O)(=O)N3CCOCC3)cc2)C1=O (stereo not drawn) | inconclusive: 7.08 µM [activator, partial curve, poor fit] |  |
| CNC(=O)N(O)C1N(/N=C/c2ccccc2O)C(=S)SC1(C)C (stereo not drawn) | inconclusive: 20 µM [inhibitor, single point] |  |
| COc1ccc(-c2csc3nc(-c4ccccc4OC)oc(=O)c23)cc1 | active: 11.2 µM |  |
| C/C=C/c1ccc(OC(C)[C@@H](O)c2ccc(O)c(OC)c2)c(OC)c1 (stereo partly drawn) |  | inactive: 36.3% |
| Clc1ccc(Nc2ccc(NCc3ccccc3)nn2)cc1 |  | inactive: 16.3% |
| CCC(C)(C)NC(=S)Nc1ccccc1C | active: 3.98 µM |  |
